The record followed here is patent US12496303B2, “Conditioning agents for use in allogeneic hematopoietic stem cell transplantation” (priority 2020, dated 2025).

For the data set the following is noted: baricitinib pumps, earliest time points, corrected by later timepoints. The method, then:
To investigate the efficacy of ADCs for allo-HSCT conditioning, two transplant models were used (see e.g., FIG. 2A): a miHA-mismatched BALB/c-Ly5.1→DBA/2 model and a haploidentical CB6F1→B6 (F1-to-parent) model MHC-mismatched for H-2d in the host-versus-graft direction. CD45-SAP was chosen for conditioning in these studies to leverage its lymphodepleting activity to overcome graft rejection.
Mice were injected with CD45-SAP or cKit-SAP at doses indicated in each figure at 7 days pre-transplant (d-7). In general, 3 mg/kg (75 μg) CD45-SAP, and 0.4 mg/kg or 2 mg/kg (10 or 50 μg, respectively) cKit-SAP were used. On transplant day (d0), mice received 10×10^6 whole donor bone marrow cells via the retroorbital injection.
CD4^+ and CD8^+ T cell depletion was done using clones GK1.5 and YTS169.4, respectively, and NK cell depletion done using clone PK136. […] All antibodies were administered intraperitoneally at 250 μg per dose following the schema for each experiment.
Immediately prior to injection, these DMSO stocks were thawed, diluted 1:10 in PBS, and injected at 200 μl/mouse subcutaneously (400 μg daily dose).
ALZET subcutaneous osmotic pumps (Model 2004) were used to continuously deliver JAK1/2 inhibitors to mice for 28 days at a rate of 0.25 μL/hour (6 μL/day). A vehicle of 50% dimethyl sulfoxide (DMSO)/50% polyethylene glycol 400 (PEG-400) was used for all experiments. […]

As for `CCS(=O)(=O)N1CC(CC#N)(n2cc(-c3ncnc4[nH]ccc34)cn2)C1` [baricitinib], the “anemia / CBCs” value is on record as “mild anemia”.
